{"source": "paper doi:10.1101/2025.03.28.645892", "key": {"[1]": {"target": "T1, Arabidopsis thaliana NPL4 (Arabidopsis thaliana) (UniProt O82264)", "T1 sequence (chain, Alexa-488 dye label in the MST experiments only)": "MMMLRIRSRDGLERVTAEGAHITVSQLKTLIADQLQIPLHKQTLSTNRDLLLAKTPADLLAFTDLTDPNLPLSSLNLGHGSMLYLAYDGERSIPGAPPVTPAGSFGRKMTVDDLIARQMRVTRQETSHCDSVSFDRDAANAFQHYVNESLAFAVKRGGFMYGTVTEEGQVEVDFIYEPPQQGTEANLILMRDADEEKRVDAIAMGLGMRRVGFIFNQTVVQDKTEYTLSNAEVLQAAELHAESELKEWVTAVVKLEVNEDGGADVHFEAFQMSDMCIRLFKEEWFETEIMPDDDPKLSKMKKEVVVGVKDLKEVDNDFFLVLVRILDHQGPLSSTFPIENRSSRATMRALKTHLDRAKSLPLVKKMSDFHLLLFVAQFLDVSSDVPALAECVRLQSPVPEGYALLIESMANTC", "test": "MST"}, "[2]": {"target": "T1, Arabidopsis thaliana NPL4 (Arabidopsis thaliana)", "test": "MST", "remark": "listed apart in the source"}}, "note": "Like-named read-outs stand apart in the source and are kept apart here. Results are given in words; binding and its absence hold for the method and conditions named."}
{"substance": "Arabidopsis thaliana UFD1A", "values": [{"measurement": "binding", "setting": "[1]", "value": "no binding (tested: Kd > 200 µM)"}, {"measurement": "binding", "setting": "[2]", "value": "no binding (tested: Kd > 200 µM)"}]}
